Data as given in PubChem BioAssay AID1259405 (NCATS, 2018)
The deposit covers about 50,000 reagents; shown is an unselected part. About 4,000 of them (8%) count as active. 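Mouse siRNA library applied to hamster cells; one well for each siRNA.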 Reagents against one gene are numbered here. Reagent sequences are not shown.

Screen: 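Mouse-designed siRNAs used to find CHO productivity engineering targets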 (primary screen)
Cells: Chinese hamster CHO-K1 ovary cells with stable secreted eGFP expression
Reagents: single siRNA against mouse genes, 0.8 pmol siRNA per well (2 µl of 400 nM stock)
Time to read-out: 3 days
Measured: 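Percent of the per-plate non-targeting control median for intracellular GFP per well by laser scanning cytometry and for cell viability by ATP luminescence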
Direction: GFP, % of control: higher = more GFP per well, higher productivity; viability (ATP), % of control: higher = more viable cells (more ATP)
Hit rule: 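Called active when intracellular GFP, relative to negative control, is at or above 120%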

no.	gene	siRNA no.	GFP, % of control	viability (ATP), % of control	call
1	Mmab	1	41.5	56.2	inactive
2	Mmab	2	29.5	25.3	inactive
3	Mmab	3	73.8	57.7	inactive
4	Ppp1r2-ps9	1	78.8	79.5	inactive
5	Ppp1r2-ps9	2	87.5	84.8	inactive
6	Ppp1r2-ps9	3	70.9	86.5	inactive
7	Zar1	1	52.6	46.7	inactive
8	Zar1	2	55.4	62.8	inactive
9	Zar1	3	77.6	103	inactive
10	Or4p22	1	58.2	57.4	inactive
11	Or4p22	2	73.6	83.5	inactive
12	Or4p22	3	110	88.1	inactive
13	Hoxc11	1	105	93.7	inactive
14	Hoxc11	2	102	116	inactive
15	Hoxc11	3	67.2	77.4	inactive
16	Plk1	1	46.7	17.7	inactive
17	Mier2	1	195	108	active
18	Mier2	2	78.6	75.9	inactive
19	Mier2	3	65.6	66.1	inactive
20	Cmya5	1	51.6	105	inactive
21	Cmya5	2	34.6	52.9	inactive
22	Cmya5	3	64	118	inactive
23	Slc35f3	1	77	63.3	inactive
24	Slc35f3	2	97.9	82.2	inactive
25	Slc35f3	3	88.6	68	inactive
26	Cdkl1	1	65.9	69.3	inactive
27	Or4p8	1	84.7	60	inactive
28	Or4p8	2	41.4	88.7	inactive
29	Or4p8	3	40.7	92.3	inactive
30	Cnep1r1	1	69.8	62.6	inactive
31	Cnep1r1	2	86.5	84.6	inactive
32	Cnep1r1	3	94.1	95.3	inactive
33	Cacng2	1	96.2	46.7	inactive
34	Cacng2	2	54.3	55	inactive
35	Cacng2	3	106	79.4	inactive
36	Zmynd19	1	69.6	55	inactive
37	Zmynd19	2	83.6	61.9	inactive
38	Zmynd19	3	91.3	98	inactive
39	Yipf7	1	139	93	active
40	Yipf7	2	60.4	79.4	inactive
41	Yipf7	3	62.9	93.3	inactive
42	Npb	1	114	89.2	inactive
43	Npb	2	81.7	84.8	inactive
44	Npb	3	75.7	72.3	inactive
45	Mpzl1	1	76.3	83.1	inactive
46	Mpzl1	2	87.2	83.7	inactive
47	Srst	1	69.8	86	inactive
48	Srst	2	93.8	125	inactive
49	Srst	3	47.1	42.6	inactive
50	Vwa5b2	1	87.2	92.3	inactive
51	Vwa5b2	2	103	93.6	inactive
52	Vwa5b2	3	75	50.4	inactive
53	Vwa5b2	4	70.1	104	inactive
54	Vwa5b2	5	146	51.9	active
55	Vwa5b2	6	81.2	94.6	inactive
56	Or1e32	1	65.9	46.6	inactive
57	Or1e32	2	76.7	76.1	inactive
58	Or1e32	3	62.3	124	inactive
59	Or9s14	1	79.1	66.9	inactive
60	Or9s14	2	83.2	74	inactive
61	Or9s14	3	88.8	91.4	inactive
62	Cacna2d2	1	91.3	60.9	inactive
63	Cacna2d2	2	68.7	41.4	inactive
64	Cacna2d2	3	85.7	95.4	inactive
65	Or6c2b	1	68.5	44.5	inactive
66	Or6c2b	2	69.1	73.2	inactive
67	Or6c2b	3	59.4	120	inactive
68	Mrpl9	1	62.5	65.8	inactive
69	Mrpl9	2	75.7	56.6	inactive
70	Mrpl9	3	52.6	63.8	inactive
71	Lipk	1	44.2	94	inactive
72	Lipk	2	89.9	85.3	inactive
73	Lipk	3	49	74.9	inactive
74	Slc49a3	1	73.6	69.8	inactive
75	Slc49a3	2	54.3	118	inactive
76	Slc49a3	3	100	75.9	inactive
77	Slc2a3	1	79.4	85.5	inactive
78	Slc2a3	2	98.6	109	inactive
79	Slc2a3	3	88	97.4	inactive
80	Kcnma1	1	55.2	55.6	inactive
81	Kcnma1	2	75.6	105	inactive
82	Kcnma1	3	80	97.4	inactive
83	Zfp943	1	108	78.3	inactive
84	Zfp943	2	44.8	51.6	inactive
85	Zfp943	3	104	101	inactive

A stretch from the list above, as a working copy:
no.	gene	siRNA no.	GFP, % of control	viability (ATP), % of control	call
45	Mpzl1	1	76.3	83.1	inactive
46	Mpzl1	2	87.2	83.7	inactive
47	Srst	1	69.8	86	inactive
48	Srst	2	93.8	125	inactive
49	Srst	3	47.1	42.6	inactive
50	Vwa5b2	1	87.2	92.3	inactive
51	Vwa5b2	2	103	93.6	inactive
52	Vwa5b2	3	75	50.4	inactive
53	Vwa5b2	4	70.1	104	inactive
54	Vwa5b2	5	146	51.9	active
55	Vwa5b2	6	81.2	94.6	inactive
56	Or1e32	1	65.9	46.6	inactive
